# Assay results taken from PubChem BioAssay AID540256 (National Center for Advancing Translational Sciences (NCATS), 2011).
# Screen size: about 300,000 compounds; about 3,700 (1.2%) were called active. This list was built around the results that the source calls inconclusive (neither active nor inactive); the mix of calls is not that of the screen. Calls come from the whole dose curve; tested in HEK293 cells. Potencies beside an inconclusive call are fits to weak or partial responses and may not hold up.
# Test: qHTS for Inhibitors of binding or entry into cells for Lassa Virus; note: nearly all actives have a fitted effect of over 50% in size
# Details: Lassa virus pseudotype entry inhibition, cell reporter; series mostly up to 37.9 µM
# Potency is the fitted concentration of half-maximal effect.
row,Structure (SMILES),Potency
1,COc1ccc(NC(=O)c2ccco2)cc1NC(=O)c1cc(Br)ccc1Cl,"inconclusive: 17.8 µM [inhibitor, partial curve, poor fit]"
2,COC(=O)Cc1c(C(=O)OC)nnn1-c1ccc(OC)cc1,"inconclusive: 31.6 µM [activator, single point]"
3,COc1ccc(S(=O)(=O)N(CC(=O)NCCc2ccccc2)c2ccc(Cl)cc2)cc1,inactive
4,COc1ccc(-c2nnc(SCC(=O)N3c4ccccc4Sc4ccccc43)o2)cc1,"inconclusive: 14.1 µM [inhibitor, single point]"
5,CCOC(=O)c1sc(N=Nc2c(O)[nH]c(=O)[nH]c2=O)c(C(=O)OCC)c1C,inactive
6,Cc1ccc(-n2nc3c([n+]2[O-])CCc2c-3no[n+]2[O-])cc1,"inconclusive: 11.6 µM [inhibitor, partial curve, poor fit]"
7,Cc1cc(C)nc(NC(=O)c2ccc(Cl)cc2Cl)n1,inactive
8,Nc1nccc(C#Cc2cncnc2Nc2ccc(OCc3cccc(F)c3)c(Cl)c2)n1,active: 17.7 µM
9,CCOC(=O)c1cccc(Nc2nc(-c3cccnc3)nc3ccccc23)c1,"inconclusive: 31.6 µM [inhibitor, single point]"
10,Cc1ccccc1Nc1nnc(SCC(=O)Nc2ncc(C(F)(F)F)cc2Cl)s1,"inconclusive: 0.398 µM [inhibitor, partial curve, poor fit]"
11,CC(=O)N1CCN(c2ccc(NC(=O)c3ccccc3)cc2)CC1,inactive
12,O=C(Nc1nsc(-c2ccccc2)n1)c1cccs1,"inconclusive: 8.91 µM [inhibitor, partial curve, poor fit]"
13,O=C1CCCCC1S(=O)(=O)c1ccccc1 (configuration not stated),"inconclusive: 6.31 µM [inhibitor, single point]"
14,COc1ccc2cc3cc(C(=O)NCCN4CCc5ccccc5C4)oc3nc2c1,"inconclusive: 1 µM [inhibitor, partial curve, poor fit]"
15,Cc1cccc(-c2ncc(CN3CCN(CC(C)C)C(CCO)C3)cn2)c1 (configuration not stated),inactive
16,CC(=O)Nc1ccc2c(c1)C(N1CC3CCC(CC3)C1)c1ccccc1-2 (configuration not stated),"inconclusive: 3.98 µM [inhibitor, single point]"
17,CN1CCN(C(=O)c2ccccc2NC(=O)c2ccccc2)CC1,"inconclusive: 11.2 µM [activator, partial curve, poor fit]"
18,CCn1nnc2sc3c(c2c1=O)CCC(C)C3 (configuration not stated),"inconclusive: 18.3 µM [activator, single point]"
19,CO[C@H]1O[C@H](C)[C@@H](O)C[C@H]1NC(=O)OCc1ccccc1,inactive
20,CCc1ccc(C(=O)Nc2ccc3nc(C)ccc3c2)cc1,"inconclusive: 35.5 µM [inhibitor, single point]"
21,Cc1cc2cc(CNC(=S)Nc3ccc(OC(F)F)cc3)ccc2[nH]1,"inconclusive: 5.8 µM [inhibitor, partial curve, poor fit]"

row,Structure (SMILES),Potency
1,Cc1ccccc1NC(=O)C(=O)c1cn(C)c2ccccc12,"inconclusive: 7.94 µM [activator, partial curve, poor fit]"
2,COc1ccc(C(=O)CCS(=O)(=O)c2ccc(C)cc2)cc1OC,"inconclusive: 14.1 µM [inhibitor, partial curve, poor fit]"
3,O=C(CCl)Nc1ccccc1Sc1ccccc1,"inconclusive: 29.1 µM [inhibitor, single point]"
4,Cc1ccc(NC(NC(=O)c2cccs2)C(Cl)(Cl)Cl)cc1C (configuration not stated),"inconclusive: 25.1 µM [inhibitor, partial curve, poor fit]"
5,Cc1ccc(NC(=S)c2nc3ccccc3s2)cc1,"inconclusive: 25.1 µM [inhibitor, single point]"
6,CCn1nnc(NC(=O)Cc2ccc(Cl)cc2)n1,"inconclusive: 0.794 µM [inhibitor, single point]"
7,O=[N+]([O-])c1ccc(N2CCN(c3ccccc3O)CC2)c(Cl)c1,inactive
8,COc1ccc(CCN(C)C(=O)c2ccc(S(=O)(=O)NCc3ccco3)cc2)cc1OC,inactive
9,CCn1cc(S(=O)(=O)c2cc(C)cc(C)c2)c(=O)c2cc(F)c(N3CCN(c4ccccc4)CC3)cc21,inactive
10,Cc1ccc(S(=O)(=O)n2nccc2-c2c(-c3ccccc3)noc2C)cc1,"inconclusive: 6.31 µM [inhibitor, partial curve, poor fit]"
11,CC(C)N(C(=O)CN1C(=O)C(=O)c2ccccc21)c1ccccc1,"inconclusive: 35.5 µM [inhibitor, single point]"
12,CCN(CC)S(=O)(=O)c1ccc2oc(C(=O)N3CCc4ccccc4C3)c(C)c2c1,"inconclusive: 18.4 µM [inhibitor, single point]"
13,COC(=O)c1ccc(NC(=O)CN(C)S(=O)(=O)c2ccc3c(c2)CCCC(=O)N3)cc1,"inconclusive: 14.1 µM [activator, partial curve, poor fit]"
14,COc1ccc(NCc2nnc(SCc3ccc(Cl)cc3)n2-c2ccccc2)cc1,"inconclusive: 12.6 µM [inhibitor, single point]"
15,Cc1cccc(NC(=O)CSc2nc3ccccc3c(=O)n2C)c1,"inconclusive: 7.08 µM [inhibitor, partial curve, poor fit]"
16,C=CCc1c(C)nc(-c2ccccc2)nc1N/N=C(\C)c1ccccc1,inactive
17,Cc1ccccc1C1C(C#N)=C2N=C(N)c3c(sc4c3CCCCC4)N2C2=C1C(=O)CCC2 (configuration not stated),"inconclusive: 18.3 µM [inhibitor, partial curve, poor fit]"
18,Cc1cc(C)c(C(=O)N2CCCC(N3CCN(c4ccc(F)cc4)CC3)C2)o1 (configuration not stated),"inconclusive: 11.2 µM [inhibitor, partial curve, poor fit]"
19,Cc1sc2ncn(CC(=O)N3CCN(c4cccc(Cl)c4)CC3)c(=O)c2c1S(=O)(=O)N1CCC(C)CC1,"inconclusive: 35.5 µM [inhibitor, single point]"
20,Cc1cccc2cc(-c3nc(-c4cccs4)no3)c(=O)oc12,inactive
21,OC(C#CCCN1CCCCC1)(c1ccccc1)C1CCCCC1 (configuration not stated),"inconclusive: 5.62 µM [inhibitor, partial curve, poor fit]"

# In the list so far, five have fluorine:
row,Structure (SMILES),Potency
8,Nc1nccc(C#Cc2cncnc2Nc2ccc(OCc3cccc(F)c3)c(Cl)c2)n1,active: 17.7 µM
10,Cc1ccccc1Nc1nnc(SCC(=O)Nc2ncc(C(F)(F)F)cc2Cl)s1,"inconclusive: 0.398 µM [inhibitor, partial curve, poor fit]"
21,Cc1cc2cc(CNC(=S)Nc3ccc(OC(F)F)cc3)ccc2[nH]1,"inconclusive: 5.8 µM [inhibitor, partial curve, poor fit]"
9,CCn1cc(S(=O)(=O)c2cc(C)cc(C)c2)c(=O)c2cc(F)c(N3CCN(c4ccccc4)CC3)cc21,inactive
18,Cc1cc(C)c(C(=O)N2CCCC(N3CCN(c4ccc(F)cc4)CC3)C2)o1 (configuration not stated),"inconclusive: 11.2 µM [inhibitor, partial curve, poor fit]"
